Experimental data: PubChem BioAssay AID602196 (INSERM, 2012)

Purpose: 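Knock-downs that protect lung cancer cells from cisplatin or sensitise them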
System: human A549 lung cancer cells
Reagent: siRNA pair against human genes
Time to read-out: 48 h transfection before cisplatin; time from cisplatin to read-out not stated
Challenge: cisplatin at a dose killing half of control-siRNA cells; exact dose and duration not given
Detection: 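Shift in cisplatin death relative to control siRNA, from -50 (all cells die) to +50 (no cells die); siRNAs harmful on their own scored 0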
Scale: two-siRNA summed score (-2 to +2): higher = both siRNAs protect from cisplatin killing; -2 means both sensitise; mean protection from cisplatin (shift in death) and protection from cisplatin (shift in death), siRNA C and protection from cisplatin (shift in death), siRNA D: higher = protection from cisplatin killing
Call rule: 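Each siRNA scores 0 if harmful alone by LDH or WST-1, otherwise +1 if it reduces and -1 if it increases cisplatin killing; a gene is active when both siRNAs agree (sum +2 or -2)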
Calls: active = both siRNAs shift cisplatin killing the same way; inactive = no consistent shift, or siRNA harmful alone
Shown is an unselected part of about 23,000 reagents. Over the whole deposit, 455 (2%) got an active call. 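Active includes both protection and sensitisation; some change values fall well beyond the stated -50 to +50 range.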 A number with no mark means an inactive call. The numbers tell different reagents against one gene apart. Reagent sequences are not shown. Not given: the amount of reagent.

gene symbol,reagent no.,two-siRNA summed score (-2 to +2),mean protection from cisplatin (shift in death) (%),"protection from cisplatin (shift in death), siRNA C (%)","protection from cisplatin (shift in death), siRNA D (%)"
NOCT,1,0,10.6,4.4,16.8
LOC440254,1,1,7.8,14,1.6
ERP27,1,1,10.8,8.2,13.4
TMEM17,1,0,5.6,14.9,-3.8
LOC441312,1,0,8.2,7.6,8.8
LOC440546,1,1,17.4,18.2,16.6
BARD1,1,1,10,23.1,-3
FMO4,1,-1,-12.2,-24.5,0.1
COMTD1,1,0,25.2,24.2,26.1
U2AF1L4,1,0,2.4,6.1,-1.3
PXMP2,1,0,0.3,9.8,-9.2
NSD2,1,0,-11.9,-16.6,-7.2
ATP6V0E2-AS1,1,1,18.9,19.8,18
PPP1R26,1,0,14.7,19.9,9.5
PTH2,1,0,0.6,2.9,-1.8
STAT3,1,-1,-12.3,0.7,-25.3
ANKS6,1,0,15.7,24.2,7.2
MKS1,1,0,-3.9,-15.5,7.8
ZMIZ1,1,0,6.2,0.5,12
RNF166,1,0,0.8,2,-0.5
TIAM1-AS1,1,0,9.2,10.8,7.6
OR3A1,1,-1,-5.3,10.1,-20.7
HCN3,1,0,11.2,10.2,12.2
KIAA1240,1,0,11.9,12.5,11.3
DKFZp686J0529,1,0,14.5,3.2,25.8
LOC442165,1,-1,-2.3,1.4,-6
TMEM147,1,-1,-13.2,-5.6,-20.8
SMIM32,1,1,26.1,18.8,33.4
LOC392221,1,0,-0.6,11.7,-12.9
TRAP1,1,1,11.3,6.4,16.3
ACAD8,1,0,-5.6,0.6,-11.8
SIL1,1,0,-2.7,2,-7.4
CYP19A1,1,-1,-8.7,8.8,-26.2
HEPACAM2,1,0,4.1,11.1,-3
LOC200292,1,0,6.9,-6,19.9
GYPB,1,1,2.9,-5.2,10.9
CNN2P13,1,0,0.6,-4.5,5.8
DKFZP434F122,1,1,4.1,9.2,-1
PAXIP1,1,0,2.7,8.4,-3.1
KRT2,1,0,-2,1,-5.1
LDLRAD4,1,0,6.3,7.6,4.9
LOC439992,1,0,25.8,18.8,32.8
CCDC150,1,0,8.1,9.9,6.2
CCDC150,2,1,24.2,19.6,28.8
NUS1,1,-1,-0.4,-14.3,13.5
LOC283551,1,0,7.8,-0.7,16.3
RAB1A,1,0,6.1,10.5,1.7
ALAD,1,0,7.4,2.9,11.9
PAK5,1,1,9.6,16.1,3.1
BTN2A2,1,0,-5.9,14.9,-26.7
CALB1,1,0,-5,-8.2,-1.8
SAA2,1,-1,-0.1,-9.4,9.2
ST20-AS1,1,0,5.1,-1.5,11.7
HLA-DQB1,1,1,5.6,-0.5,11.6
BHMT,1,0,6.5,2,10.9
L1CAM,1,-1,-19.5,-18.5,-20.5
G0S2,1,-1,-8.7,-2.6,-14.9

Sorted by “two-siRNA summed score (-2 to +2)” (highest first): some entries from above
gene symbol,reagent no.,two-siRNA summed score (-2 to +2),mean protection from cisplatin (shift in death) (%),"protection from cisplatin (shift in death), siRNA C (%)","protection from cisplatin (shift in death), siRNA D (%)"
GYPB,1,1,2.9,-5.2,10.9
ACAD8,1,0,-5.6,0.6,-11.8
SIL1,1,0,-2.7,2,-7.4
HEPACAM2,1,0,4.1,11.1,-3
LOC200292,1,0,6.9,-6,19.9
CYP19A1,1,-1,-8.7,8.8,-26.2
